Results: PubChem BioAssay AID2685 (National Center for Advancing Translational Sciences (NCATS), 2010)
The other results are listed elsewhere or left out. Further columns of the screen follow, without active or inactive calls. Compounds called inactive in the main read-out are mostly missing here. Potencies come from curve fits of mixed quality, noted in brackets.

Test: qHTS Assay for Lipid Storage Modulators in Drosophila S3 Cells;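 on cell number change: cells counted by Cell Tracker Red CMTPX staining in the red channel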
Settings: BODIPY lipid droplet fluorescence, 18-24 h; for cell number change: measured here: cell count max response, cells fed with added oleic acid
Method in brief: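 Laser-scanning cytometry quantifies lipid droplet accumulation (500–530 nm total intensity; droplet/cell object ratio) in oleic acid-fed (400 uM added) Drosophila S3 cells treated with a concentration series. 20 uM Triacsin C defined 100% inhibition.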

[1] = measured here: cell number channel AC50, cells fed with added oleic acid
[2] = measured here: lipid fluorescence (Fed channel) AC50, cells fed with added oleic acid

Row | Compound | cell number change [%] | AC50 [1] | AC50 [2]
1 | CC(C)N1C(=O)CSC1c1ccc(Br)cc1 (centres undefined) | -7.09 |  | 
2 | C=CCn1c(CCNC(=O)c2cccs2)nnc1SCC(=O)c1ccc(Cl)cc1 | -34.7 | 0.146 µM [falling, full curve, poor fit] | 2.06 µM [rising, partial curve]
3 | CC(C)c1ccc(NC(=O)/C(C#N)=C/c2ccncc2)cc1 | -11.9 |  | 0.58 µM [rising, single point]
4 | Cc1ccc(NC(=O)C(=O)NCc2ccncc2)cc1 | 28.8 | 2.06 µM [rising, full curve, poor fit] | 0.731 µM [falling, single point]
5 | CC1CC(C)(C)CC(=O)C1C(=O)c1ccccc1 (centres undefined) | 21.8 |  | 29.1 µM [rising, single point]
6 | CCOc1ccc(NC(=O)C(=O)NCc2ccncc2)cc1 | 8 |  | 0.146 µM [falling, full curve, poor fit]
7 | CCN(CC)CCN1C(=O)C(=O)/C(=C(/O)c2ccc(S(=O)(=O)N3CCOCC3)cc2)C1c1ccc(Cl)cc1 (centres undefined) | -5.04 |  | 
8 | Cc1ccc(Nc2cc(C)nc3c(C)cccc23)cc1 | -21.5 |  | 3.66 µM [falling, full curve]
9 | CCCn1c(SCC(=O)Nc2ccc(OC)cc2)nnc1-c1ccncc1 |  | 1.3 µM [rising, partial curve] | 
10 | COCC(=O)N(Cc1cc2ccc(C)cc2[nH]c1=O)c1cccc(C)c1 | 3.87 |  | 
11 | O=C1c2cccc([N+](=O)[O-])c2C(=O)N1CCO | -64.3 | 29.1 µM [falling, single point] | 29.1 µM [falling, single point]
12 | CCC1Sc2ccc(S(=O)(=O)CCC(=O)NCc3cccs3)cc2NC1=O (centres undefined) | -14.8 |  | 
14 | CC(=O)NC(=S)Nc1ccc(NC(=O)COc2ccc(Cl)cc2Cl)cc1 | -40.7 |  | 
15 | CN1CCN(S(=O)(=O)c2cccc(C(=O)Nc3cc(C(N)=O)cc(C(N)=O)c3)c2)CC1 | 5.83 |  | 0.116 µM [rising, single point]
16 | CN(C)CCN(C(=O)c1ccc(S(=O)(=O)N2CCCC2)cc1)c1nc2ccc(Br)cc2s1 | 13.2 |  | 4.61 µM [rising, full curve, poor fit]
17 | CCCCOC(=O)c1ccc(N/C(=N\S(=O)(=O)c2ccccc2)c2ccccc2)cc1 | 6.84 |  | 0.184 µM [rising, full curve]
18 | O=[N+]([O-])c1ccccc1SNc1ccc(Br)cn1 | 16.4 |  | 4.61 µM [rising, single point]
19 | COc1ccccc1NC(=S)NNC(=O)c1ccncc1 | 13.3 | 0.259 µM [rising, full curve, poor fit] | 
20 | CCCCn1c(=O)[nH]c(=O)c2c1nc(-c1ccc(C#N)cc1)n2C1CCCC1 | -21.4 |  | 0.00731 µM [falling, full curve, poor fit]
21 | O=C1c2ccc3c4c(ccc(c24)C(=O)N1CCCCO)C(=O)N(CCCCO)C3=O | -53.9 | 8.2 µM [falling, partial curve] | 7.31 µM [falling, partial curve]

Three structures from above, ordered by formula weight, largest number first.
Row | Compound | cell number change [%] | AC50 [1] | AC50 [2]
12 | CCC1Sc2ccc(S(=O)(=O)CCC(=O)NCc3cccs3)cc2NC1=O (centres undefined) | -14.8 |  | 
21 | O=C1c2ccc3c4c(ccc(c24)C(=O)N1CCCCO)C(=O)N(CCCCO)C3=O | -53.9 | 8.2 µM [falling, partial curve] | 7.31 µM [falling, partial curve]
3 | CC(C)c1ccc(NC(=O)/C(C#N)=C/c2ccncc2)cc1 | -11.9 |  | 0.58 µM [rising, single point]

The list continues.

Row | Compound | cell number change [%] | AC50 [1] | AC50 [2]
22 | O=C(NCC1CCCO1)c1cc2ccccc2o1 (centres undefined) | 13.9 |  | 
23 | Cn1c(SCC(=O)NC2CCCc3ccccc32)nnc1C1CC1 (centres undefined) | -50 | 16.4 µM [falling, single point] | 
24 | Cc1ccc(C2=CC(=O)CC(C)(C)C2)cc1 | 14.7 |  | 
25 | O=C(NCC(=O)N1CCN(Cc2ccccc2)CC1)c1ccc(Br)cc1 | -1.05 |  | 0.00651 µM [rising, full curve, poor fit]
26 | O=C(Cc1c(F)cccc1Cl)Nc1nc2ccccc2s1 | -49.9 |  | 
27 | COc1cccc(N2CCN(C(=O)CC(NC(=O)c3ccccc3)c3ccccc3)CC2)c1 (centres undefined) | 9.66 |  | 6.51 µM [rising, single point]
28 | COC(=O)c1nc2ccc(N3CCOCC3)cc2c(C)c1C(=O)OC | 12.6 | 0.082 µM [rising, partial curve] | 0.164 µM [rising, full curve, poor fit]
29 | NC(=O)c1nn(-c2ccc(Cl)cc2Cl)c(=O)cc1O | -9.62 |  | 2.91 µM [falling, single point]
30 | Cc1ccc(-c2c[n+](=O)c3c(n2[O-])CCC3)cc1 | -13.9 |  | 0.0291 µM [falling, full curve, poor fit]
31 | CC(C)Cc1cc(C(=O)N2CCCC(CO)(Cc3ccc(F)cc3F)C2)n[nH]1 (centres undefined) | -9.06 |  | 8.2 µM [rising, partial curve]
32 | O=C(CNC(=O)c1ccccc1F)OCCOc1cccc(Cl)c1 | -29.3 | 1.46 µM [falling, full curve, poor fit] | 
33 | COc1cccc(CN(C)C(=O)c2cccc(S(=O)(=O)N3CCN(c4ccc(F)cc4)CC3)c2)c1OC | 71.1 |  | 
34 | CCN(CC(=O)Nc1ccccc1C(F)(F)F)C(=O)c1cccc(S(=O)(=O)N2CCN(C)CC2)c1 | -10.9 |  | 
35 | CC1CCCCN1C(=O)CSc1nnc2c(n1)[nH]c1ccccc12 (centres undefined) |  |  | 5.17 µM [falling, single point]
36 | COc1ccc(S(=O)(=O)N2CCCOC2CNC(=O)C(=O)NCc2ccco2)cc1C (centres undefined) | -4.25 |  | 
37 | CC(C)CN(C(=O)CCCc1nc2ccccc2c(=O)[nH]1)c1c(N)n(Cc2ccccc2)c(=O)[nH]c1=O | 2.5 |  | 
38 | COc1ccc(C(=O)NCC(=O)OCc2nc(N)nc(Nc3ccccc3C)n2)cc1 | 4.39 |  | 6.51 µM [rising, partial curve, poor fit]
39 | CC1=C(C(=O)Nc2ccccc2C)C2(CCCCC2)C(C(N)=O)C(=S)N1 (centres undefined) | -2.89 | 0.461 µM [rising, partial curve, poor fit] | 
40 | CC(=O)NNc1nc(-c2ccc(NC(C)=O)cc2)cs1 | 9.79 |  | 20.6 µM [rising, single point]
41 | Cc1cc(C)n(-c2ccc(C(=O)N3CCc4ccccc43)cc2)n1 |  | 4.11 µM [rising, partial curve, poor fit] | 2.59 µM [rising, single point]
42 | Cc1ccc(C(C)C)cc1OCC(=O)Nc1ccccc1N1CCCC1 | 35.4 | 16.4 µM [rising, partial curve] | 
